Patent US20100256217A1, “ANTIVIRAL INHIBITION OF CASEIN KINASE II” (The Trustees of the University of Pennsylvania, priority 2006, published 2010)
No constants are given. Whether binding was seen depends on the method and setting. For part of these data: In cells and extracts the contact can be indirect. Some entries that bind do so weakly or less than the wild type.

Protein sequences, listed by entry. Tags and fused reporters are not part of them. Residues count along the entry.
UniProt P68400: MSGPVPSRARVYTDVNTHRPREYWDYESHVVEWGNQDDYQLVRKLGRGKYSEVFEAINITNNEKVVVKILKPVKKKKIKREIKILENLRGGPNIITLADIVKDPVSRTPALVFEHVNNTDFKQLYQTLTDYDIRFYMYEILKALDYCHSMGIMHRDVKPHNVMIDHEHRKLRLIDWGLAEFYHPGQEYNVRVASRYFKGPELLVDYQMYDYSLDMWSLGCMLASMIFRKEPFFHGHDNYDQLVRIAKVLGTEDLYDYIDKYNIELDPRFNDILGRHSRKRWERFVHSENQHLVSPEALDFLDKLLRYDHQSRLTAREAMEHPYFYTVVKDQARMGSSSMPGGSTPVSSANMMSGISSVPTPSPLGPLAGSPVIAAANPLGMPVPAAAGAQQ
UniProt Q9Q6P4, residues 1-123: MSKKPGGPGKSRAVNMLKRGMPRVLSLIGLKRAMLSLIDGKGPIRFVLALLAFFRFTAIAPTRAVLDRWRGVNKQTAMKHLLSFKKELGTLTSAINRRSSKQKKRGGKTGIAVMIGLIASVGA

How the values were obtained:
[1] = molecular target: human CK2α subunit, cloned from HeLa cell cDNA (pcCK2α) (human) (UniProt P68400); experiment: co-immunoprecipitation from transfected 293T cell lysates with anti-His or anti-CK2α, then western blot; endogenous CK2α was also pulled down
[2] = molecular target: human CK2α subunit, cloned from HeLa cell cDNA (pcCK2α) (human) (UniProt P68400); experiment: co-immunoprecipitation: 35S-labeled in vitro translated proteins, and 293-T cell lysates with western blot
[3] = molecular target: human CK2α subunit, cloned from HeLa cell cDNA (pcCK2α) (human) (UniProt P68400); experiment: in vitro binding assay and co-immunoprecipitation with western blot (summary in the discussion)
[4] = molecular target: human CK2α subunit, cloned from HeLa cell cDNA (pcCK2α) (human) (UniProt P68400); experiment: in vitro binding assay, 35S-labeled in vitro translated proteins, co-immunoprecipitation, autoradiography
[5] = molecular target: human CK2α subunit, cloned from HeLa cell cDNA (pcCK2α) (human) (UniProt P68400); experiment: co-immunoprecipitation from transfected 293T cells, then western blot
[6] = molecular target: recombinant WNV capsid protein with an N-terminal hexa-histidine tag, expressed in E. coli from pQE30 (West Nile virus) (UniProt Q9Q6P4); experiment: SDS-PAGE and anti-His western blot of Ni-NTA purified protein (bands at 14 kD and 33 kD)

Measured: binding

West Nile virus capsid protein with a C-terminal polyhistidine tag, encoded by pcWNV C-His (from UniProt Q9Q6P4 1-123)
not listed: [6]
binds: all other assays above

recombinant WNV capsid protein with an N-terminal hexa-histidine tag, expressed in E. coli from pQE30 (from UniProt Q9Q6P4 1-123)
binds: [6]
